Publication PMC12302606, “The SlDOF9‐SlSWEET17 Module: a Switch for Controlling Sugar Distribution Between Nematode Induced Galls and Roots in Tomato”
For at least one entry, the source does not settle the construct or the ends of the probe. A weaker result is weaker than the reference pair of the same experiment. Protein sequences can lack the tags named with them.

Molecular target: T1, SlDOF9-His (Solanum lycopersicum) (UniProt A0A3Q7FC45)
T1 sequence (looked up, limits assumed): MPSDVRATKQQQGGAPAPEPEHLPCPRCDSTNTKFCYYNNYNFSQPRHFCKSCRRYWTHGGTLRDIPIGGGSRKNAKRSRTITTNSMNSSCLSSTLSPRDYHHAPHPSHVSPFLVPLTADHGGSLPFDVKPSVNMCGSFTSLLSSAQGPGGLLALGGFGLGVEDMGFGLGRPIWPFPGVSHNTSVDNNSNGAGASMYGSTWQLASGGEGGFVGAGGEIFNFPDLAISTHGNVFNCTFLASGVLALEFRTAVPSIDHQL
Assay: EMSA (supershift)
Conditions: anti-His antibody, two-base mutation not sufficient to prevent binding, legend: abolished or reduced; Biotin-labeled and unlabeled probes with purified protein and anti-His antibody, room temperature, 30 min; buffer from kit, salt and pH not stated; recombinant protein; protein details: C-terminal His

AGCCAGACATGAAAATACAATAATTCTCATT (double strand) [TS2m]
binding result: binds more weakly
